Laboratory results: PubChem BioAssay AID1259254 (NCATS, 2017)
In all, the deposit lists about 59,000 reagents; this is a random part of them. About 1,550 of them (2.6%) count as active. 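G2 share is only a proxy for re-replication; each gene was hit by three separate siRNAs, and active genes were retested.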 Unmarked entries are inactive. Reagents against one gene are numbered here. Further read-outs or replicates are left out here. The record does not give: the amount of reagent.

Test: 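Finding genes that stop cells copying their DNA twice in one cycle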 (primary screen)
Cells: human HCT116 colorectal cancer cells
Reagents: single siRNA against human genes
Duration: 3 days
Measured: 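Nuclei stained with Hoechst and imaged; cell-cycle phase assigned by DNA content; G2 share scaled per plate, non-targeting siRNA 0%, GMNN siRNA 100%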
Reading the numbers: G2 robust z-score and G2 cells, % of GMNN control: higher = more G2 cells, more excess DNA replication
Call rule: 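Active siRNAs have a G2 robust z of 5 or more median absolute deviations over the median, which in these data means about 38% or higher of GMNN control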

gene | reagent | G2 robust z-score | G2 cells, % of GMNN control
IQANK1 (GeneID 642574) | 1 | 3.08 | 24.6
IQANK1 (GeneID 642574) | 2 | -0.795 | -2.63
IQANK1 (GeneID 642574) | 3 | -0.182 | 1.69
IL38 (GeneID 84639) | 1 | -0.678 | -1.8
IL38 (GeneID 84639) | 2 | 2.68 | 21.8
IL38 (GeneID 84639) | 3 | -0.783 | -2.54
TEX35 (GeneID 84066) | 1 | -0.476 | -0.381
TEX35 (GeneID 84066) | 2 | -1.36 | -6.59
TEX35 (GeneID 84066) | 3 | -0.318 | 0.731
NDST4 (GeneID 64579) | 1 | 0.391 | 5.72
NDST4 (GeneID 64579) | 2 | 2.86 | 23.1
NDST4 (GeneID 64579) | 3 | -0.166 | 1.8
ZBTB17 (GeneID 7709) | 1 | -1.03 | -4.3
ZBTB17 (GeneID 7709) | 2 | 0.164 | 4.12
ZBTB17 (GeneID 7709) | 3 | -0.128 | 2.07
IRF6 (GeneID 3664) | 1 | 3.15 | 25.2
IRF6 (GeneID 3664) | 2 | 0.892 | 9.24
IRF6 (GeneID 3664) | 3 | 4.31 | 33.3
TUB (GeneID 7275) | 1 | -0.674 | -1.78
TUB (GeneID 7275) | 2 | 1.05 | 10.4
TUB (GeneID 7275) | 3 | 2.79 | 22.6
SPATA6L (GeneID 55064) | 1 | -0.942 | -3.66
SPATA6L (GeneID 55064) | 2 | 1.58 | 14.1
SPATA6L (GeneID 55064) | 3 | 1.45 | 13.2
MAU2 (GeneID 23383) | 1 | -0.408 | 0.0998
MAU2 (GeneID 23383) | 2 | 5.03 (active) | 38.4
MAU2 (GeneID 23383) | 3 | -1.1 | -4.76
PFKL (GeneID 5211) | 1 | 0.428 | 5.98
PFKL (GeneID 5211) | 2 | -0.022 | 2.81
PFKL (GeneID 5211) | 3 | -1.2 | -5.48
ZNF10 (GeneID 7556) | 1 | -0.425 | -0.0249
ZNF10 (GeneID 7556) | 2 | -1.4 | -6.87
ZNF10 (GeneID 7556) | 3 | -0.415 | 0.0442
SAMD5 (GeneID 389432) | 1 | -0.266 | 1.1
SAMD5 (GeneID 389432) | 2 | -0.487 | -0.458
SAMD5 (GeneID 389432) | 3 | -0.84 | -2.94
PARP16 (GeneID 54956) | 1 | -1.11 | -4.86
PARP16 (GeneID 54956) | 2 | 3.46 | 27.3
PARP16 (GeneID 54956) | 3 | 5.05 (active) | 38.5
PDE6D (GeneID 5147) | 1 | 0.497 | 6.46
PDE6D (GeneID 5147) | 2 | -0.945 | -3.68
PDE6D (GeneID 5147) | 3 | -0.228 | 1.36
FKBP3 (GeneID 2287) | 1 | 0.957 | 9.7
FKBP3 (GeneID 2287) | 2 | 6.49 (active) | 48.6
FKBP3 (GeneID 2287) | 3 | 0.123 | 3.83
LGMN (GeneID 5641) | 1 | -0.0914 | 2.32
LGMN (GeneID 5641) | 2 | 5.26 (active) | 40
LGMN (GeneID 5641) | 3 | 0.79 | 8.52
SLC35F2 (GeneID 54733) | 1 | 2.9 | 23.3
SLC35F2 (GeneID 54733) | 2 | 0.951 | 9.66
SLC35F2 (GeneID 54733) | 3 | -0.896 | -3.34
CACNA1A (GeneID 773) | 1 | -0.847 | -2.99
CACNA1A (GeneID 773) | 2 | -0.26 | 1.14
CACNA1A (GeneID 773) | 3 | 0.969 | 9.79
TNFAIP8 (GeneID 25816) | 1 | 1.61 | 14.3
TNFAIP8 (GeneID 25816) | 2 | 0.582 | 7.06
TNFAIP8 (GeneID 25816) | 3 | 0.119 | 3.8
ZNF519P3 (GeneID 100288042) | 1 | -0.793 | -2.61
ZNF519P3 (GeneID 100288042) | 2 | 1.01 | 10.1
ZNF519P3 (GeneID 100288042) | 3 | -0.584 | -1.14
BCL9 (GeneID 607) | 1 | 1.84 | 15.9
BCL9 (GeneID 607) | 2 | 1.25 | 11.8
BCL9 (GeneID 607) | 3 | 1.63 | 14.4
IFNA21 (GeneID 3452) | 1 | 3.67 | 28.8
IFNA21 (GeneID 3452) | 2 | -0.849 | -3
IFNA21 (GeneID 3452) | 3 | 6.17 (active) | 46.4
TMEM248 (GeneID 55069) | 1 | -0.326 | 0.675
TMEM248 (GeneID 55069) | 2 | 0.374 | 5.6
TMEM248 (GeneID 55069) | 3 | 0.225 | 4.55

In a second layout: results already given.
| gene | reagent | G2 robust z-score | G2 cells, % of GMNN control |
| --- | --- | --- | --- |
| BCL9 (GeneID 607) | 1 | 1.84 | 15.9 |
| BCL9 (GeneID 607) | 2 | 1.25 | 11.8 |
| BCL9 (GeneID 607) | 3 | 1.63 | 14.4 |
| IFNA21 (GeneID 3452) | 1 | 3.67 | 28.8 |
| IFNA21 (GeneID 3452) | 2 | -0.849 | -3 |
